Results reported in PubChem BioAssay AID248 (DTP/NCI, 2004).
The list does not hold the whole screen: it covers a few groups of compounds. Other doses and runs of a compound may be missing. T/C is the treated group as % of the vehicle group. Where survival is the endpoint, the PubChem record calls one and a half times the control and up active, and a quarter to a half above the control has no call in these data; cut-offs in other NCI protocols can differ. Some T/C values are marked as having no survivor count here; that says nothing about deaths at the dose. Schedule codes are those of the source, read here as Q, the interval in days (D) or hours (H), X, the number of doses. Some entries were tested several times; the values are given in rising order. Brackets with × count equal records among those shown. Some schedules carry Z or #; the key to these is not given.

System: L1210 leukemia ip in BDF1 mice, survival T/C
Test: NCI In Vivo Anticancer Drug Screen. Data for tumor model L1210 Leukemia (intraperitoneal) in B6D2F1 (BDF1) mice
Conditions: T/C endpoint: mean survival time, higher T/C = longer survival

## CN(CCCl)CCCl
dose: 3.5 mg/kg/injection, schedule: Q07DX Z (ip), vehicle: saline
  T/C: 132 % of control [survivor count not shown]
dose: 3.6 mg/kg/injection, schedule: Q01DX001 (ip), vehicle: saline
  T/C: 221 % of control [survivor count not shown]
dose: 4.0 mg/kg/injection, schedule: Q01DX001 (ip), vehicle: saline
  T/C: 193 % of control [survivor count not shown]
dose: 4.0 mg/kg/injection, schedule: Q01DX Z (oral), vehicle: saline
  T/C: 118 % of control [survivor count not shown]
dose: 4.0 mg/kg/injection, schedule: Q04DX003 (ip), vehicle: clinical formulation
  T/C: 100 % of control [survivor count not shown]
dose: 4.0 mg/kg/injection, schedule: Q04DX003 (ip), vehicle: none
  T/C: 90 [survivor count not shown] and 99 % of control [survivor count not shown]
dose: 4.0 mg/kg/injection, schedule: Q04DX003 (ip), vehicle: saline
  T/C: 104 % of control [survivor count not shown]
dose: 4.0 mg/kg/injection, schedule: Q04DX003 (ip), vehicle: water
  T/C: 86 [survivor count not shown] (2×), 91 [survivor count not shown], 100 % of control [survivor count not shown]
dose: 4.5 mg/kg/injection, schedule: Q01DX001 (ip), vehicle: saline
  T/C: 219 % of control [survivor count not shown]
dose: 5.2 mg/kg/injection, schedule: Q04DX002 (ip), vehicle: water
  T/C: 96 % of control [survivor count not shown]
dose: 6.25 mg/kg/injection, schedule: Q01DX001 (ip), vehicle: saline
  T/C: 145 % of control [survivor count not shown]
dose: 7.0 mg/kg/injection, schedule: Q01DX001 (ip), vehicle: saline
  T/C: 113 % of control [survivor count not shown]
dose: 7.5 mg/kg/injection, schedule: Q#A X034 (ip), vehicle: saline
  T/C: 116 % of control [survivor count not shown]
dose: 8.0 mg/kg/injection, schedule: Q01DX Z (oral), vehicle: saline
  T/C: 100 % of control [survivor count not shown]
dose: 12.5 mg/kg/injection, schedule: Q01DX001 (ip), vehicle: saline
  T/C: 86 % of control [survivor count not shown]
dose: 14.0 mg/kg/injection, schedule: Q01DX001 (ip), vehicle: saline
  T/C: 110 % of control [survivor count not shown]
dose: 31.0 mg/kg/injection, schedule: Q#A X034 (ip), vehicle: saline
  T/C: 134 % of control [survivor count not shown]
dose: 124.0 mg/kg/injection, schedule: Q#A X034 (ip), vehicle: saline
  T/C: 144 % of control [survivor count not shown]
dose: 500.0 mg/kg/injection, schedule: Q#A X034 (ip), vehicle: saline
  T/C: 140 % of control [survivor count not shown]
dose: 3.7 micrograms/kg/injection, schedule: Q01DX017 (ip), vehicle: saline
  T/C: 104 % of control [survivor count not shown]
dose: 3.7 micrograms/kg/injection, schedule: Q02DX009 (ip), vehicle: saline
  T/C: 102 % of control [survivor count not shown]
dose: 3.8 micrograms/kg/injection, schedule: Q01DX Z (ip), vehicle: saline
  T/C: 95 % of control [survivor count not shown]
dose: 7.5 micrograms/kg/injection, schedule: Q01DX Z (ip), vehicle: saline
  T/C: 98 % of control [survivor count not shown]
dose: 10.0 micrograms/kg/injection, schedule: Q01DX Z (ip), vehicle: carboxymethylcellulose (CMC)
  T/C: 110 % of control [survivor count not shown]
dose: 12.0 micrograms/kg/injection, schedule: Q01DX Z (ip), vehicle: carboxymethylcellulose (CMC)
  T/C: 112 % of control [survivor count not shown]
dose: 15.0 micrograms/kg/injection, schedule: Q01DX009 (ip), vehicle: water
  T/C: 96 [survivor count not shown] and 101 % of control [survivor count not shown]
dose: 15.0 micrograms/kg/injection, schedule: Q01DX017 (ip), vehicle: saline
  T/C: 117 % of control [survivor count not shown]
dose: 15.0 micrograms/kg/injection, schedule: Q01DX Z (ip), vehicle: saline
  T/C: 118 % of control [survivor count not shown]
dose: 15.0 micrograms/kg/injection, schedule: Q02DX009 (ip), vehicle: saline
  T/C: 120 % of control [survivor count not shown]
dose: 16.0 micrograms/kg/injection, schedule: Q01DX Z (ip), vehicle: carboxymethylcellulose (CMC)
  T/C: 116 % of control [survivor count not shown]
dose: 24.0 micrograms/kg/injection, schedule: Q01DX Z (ip), vehicle: carboxymethylcellulose (CMC)
  T/C: 133 % of control [survivor count not shown]
dose: 30.0 micrograms/kg/injection, schedule: Q01DX001 (ip), vehicle: saline
  T/C: 120 % of control [survivor count not shown]
dose: 30.0 micrograms/kg/injection, schedule: Q01DX009 (ip), vehicle: water
  T/C: 109 [survivor count not shown] and 111 % of control [survivor count not shown]
dose: 30.0 micrograms/kg/injection, schedule: Q01DX Z (ip), vehicle: saline
  T/C: 132 % of control [survivor count not shown]
dose: 30.0 micrograms/kg/injection, schedule: Q#A X Z (ip), vehicle: saline
  T/C: 135 % of control [survivor count not shown]
dose: 60.0 micrograms/kg/injection, schedule: Q01DX001 (ip), vehicle: saline
  T/C: 125 % of control [survivor count not shown]
dose: 60.0 micrograms/kg/injection, schedule: Q01DX009 (ip), vehicle: water
  T/C: 104 [survivor count not shown] and 107 % of control [survivor count not shown]
dose: 60.0 micrograms/kg/injection, schedule: Q01DX Z (ip), vehicle: saline
  T/C: 138 % of control [survivor count not shown]
dose: 60.0 micrograms/kg/injection, schedule: Q#A X Z (ip), vehicle: saline
  T/C: 149 % of control [survivor count not shown]
dose: 62.0 micrograms/kg/injection, schedule: Q01DX017 (ip), vehicle: saline
  T/C: 147 % of control [survivor count not shown]
dose: 62.0 micrograms/kg/injection, schedule: Q02DX009 (ip), vehicle: saline
  T/C: 133 % of control [survivor count not shown]
dose: 95.0 micrograms/kg/injection, schedule: Q01DX Z (ip), vehicle: carboxymethylcellulose (CMC)
  T/C: 135 [survivor count not shown] and 165 % of control [survivor count not shown]
dose: 110.0 micrograms/kg/injection, schedule: Q01DX001 (ip), vehicle: saline
  T/C: 130 % of control [survivor count not shown]
